At least one structure is not confirmed: it was looked up by name or label, or the drawing left a doubt.
How the values were obtained:
RORγ-LBD = molecular target: T1, RORγ-LBD (Homo sapiens, UniProt P51449); experiment: RORγ-Ligand Binding Domain (LBD) TR-FRET Assay; type: biochemical;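 also: 665/615 nm ratio relative to signal without ursolic acid or compound set at 100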
T1 construct: made in house; host or cells: SF9 cells (baculovirus)
T1 sequence (P51449 269-508 limits assumed): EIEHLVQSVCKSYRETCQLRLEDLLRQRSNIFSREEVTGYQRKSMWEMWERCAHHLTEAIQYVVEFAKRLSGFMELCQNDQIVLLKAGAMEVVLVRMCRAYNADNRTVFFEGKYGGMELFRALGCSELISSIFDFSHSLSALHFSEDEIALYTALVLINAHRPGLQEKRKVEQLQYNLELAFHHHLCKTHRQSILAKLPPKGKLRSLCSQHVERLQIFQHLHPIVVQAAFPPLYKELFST
Description: (§1) Assay procedures and results are described below.
HIS-tagged RORγ-LBD protein was expressed in SF9 cells using a baculovirus expression system. The lysate was diluted in assay buffer (50 mM Tris pH 7.0, 50 mM KCl, 1 mM EDTA, 0.1 mM DTT, 0.01% BSA) to obtain RORγ-LBD final concentration of ˜3 nM in a 384-well assay plate (need to titrate for each batch of protein).
A stock of biotinylated-LXXLL peptide from coactivator SRC1 (Biotin-[…]) was prepared in assay buffer and added to each well (200 nM final concentration). […] RORγ antagonist ursolic acid was also included at a final concentration of 2 μM. Compounds were diluted in DMSO and further diluted in assay buffer with a final DMSO concentration at 1%.

Gal4-RORγ-LBD = molecular target: T2, Gal4-RORγ-LBD (Homo sapiens, UniProt P51449); experiment: Gal4-RORγ Luciferase Reporter Assay in HEK-293T Cells; type: cell-based; conditions: HEK-293 cells
T2 construct: expressed in transfected cells; host or cells: HEK-293 cells (pcDNA3.1neo plasmid)
T2 sequence (P51449 269-508 limits assumed): T1 sequence (P51449 269-508 limits assumed)
Description: as §1
In the following protocol, HEK-293 cells were transfected with a construct comprising the Gal4 DNA binding domain fused to the ligand binding domain of RORγ (Gal4-RORγ-LBD) in a pcDNA3.1neo plasmid, and also with a reporter construct comprising pGL4.31 Gal4-luciferase (Promega). Control cells were prepared similarly using empty pcDNA3.1neo and pGL4.31 vectors.
Trans-IT reagent (Mirus, 60 μL) at room temperature was added drop wise to OptiMEM (Invitrogen, 1.5 ml). This reagent mixture was mixed by inversion then incubated for 5 to 30 minutes at room temperature. It then was added to a solution of both expression vectors (5 μg each), mixed, and incubated at room temperature for about 20 minutes. HEK-293 cells were harvested from incubation flasks by removing the media, treating with TrypLE Express (Invitrogen), and incubating until the cells detached from the bottom of the flask (approximately 2-5 minutes). […]
The cells were harvested as described above, counted, and centrifuged to obtain the desired number of cells, then re-suspended in complete growth media at 0.75×10^6 cells/mL. […] The luciferase intensity was read on an Envision plate reader (Perkin Elmer). […] The Max Response is the upper plateau in the signal as determined by line-fit using a 4-parameter logistic model in PRISM (GraphPad).

SMILES | TR-FRET Assay Max Response (RORγ-LBD) | Gal4-RORγ Assay Max Response (Gal4-RORγ-LBD; luciferase reporter, with 2 μM ursolic acid) | Gal4-RORγ Assay Max Response (Gal4-RORγ-LBD; 2 μM ursolic acid)
C[C@@H](C[C@H]1CN(S(=O)(=O)c2cccc(C(F)(F)F)c2)c2cc(-c3cccc(C(F)(F)F)c3)ccc2O1)C(=O)O [Compound 46L, (S)-2-methyl-3-((S)-6-(3-(trifluoromethyl)phenyl)-4-((3-(trifluoromethyl)phenyl)sulfonyl)-3,4-dihydro-2H-benzo[b][1,4]-oxazin-2-yl)propanoic acid] | *** (The symbol “***” indicates a value in the range of greater than 150 to 200) | – | –
O=C(O)CC[C@H]1CN(S(=O)(=O)c2cccc(C(F)(F)F)c2)c2cc(-c3cc(F)cc(OC(F)F)c3)c(Cl)cc2O1 [Compound 22N, (S)-3-(7-chloro-6-(3-(difluoro-methoxy)-5-fluorophenyl)-4-((3-(trifluoromethyl)phenyl)sulfonyl)-3,4-dihydro-2H-benzo[b][1,4]-oxazin-2-yl)propanoic acid] | *** (The symbol “***” indicates a value in the range of greater than 150 to 200) | – | –
O=C(O)CC[C@H]1CN(S(=O)(=O)c2cccc(C(F)(F)F)c2)c2cc(-c3cc(Cl)ccc3Cl)ccc2O1 [Compound 2AM, (S)-3-(6-(2,5-dichlorophenyl)-4-((3-(trifluoromethyl)phenyl)-sulfonyl)-3,4-dihydro-2H-benzo[b][1,4]oxazin-2-yl)propanoic acid] | **** (The symbol “****” indicates a value greater than 200) | *** (The symbol “***” indicates a value in the range of greater than 150 to 200) | –
COc1cc(S(=O)(=O)N2C[C@H](CNS(=O)(=O)N3CCCC3)Oc3ccc(-c4cc(F)ccc4F)cc32)ccc1F [Compound 45F, (S)-N-((6-(2,5-difluorophenyl)-4-((4-fluoro-3-methoxyphenyl)sulfonyl)-3,4-dihydro-2H-benzo[b][1,4]oxazin-2-yl)methyl)pyrrolidine-1-sulfonamide] | – | – | * (The symbol “*” indicates a value in the range of 25 to 90)
